{"source": "PubChem BioAssay AID1671195, Yale University – 2021", "test": "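Regulators of LDL receptor activity judged by labelled LDL uptake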 (primary screen)", "system": "human Huh7 hepatoma cells", "reagent": "siRNA pool against human genes, 18 nM", "timing": "about 2 to 2.5 days of knockdown, then 8 h LDL uptake", "conditions": "DiI-labelled LDL at 30 µg/ml for 8 h, in lipoprotein-deficient serum medium", "measured": "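Fluorescent LDL signal imaged in cells, scaled to the plate median, robust z-score for each replicate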", "reading the numbers": "robust z-score: higher = more LDL uptake after knockdown", "hit rule": "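a gene counts as active if at least two replicate z-scores exceed ±2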", "note": "Shown is a random part of about 22,000 reagents tested. In the full data, about 1,510 (6.9%) were called active. 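Active includes knockdowns raising or lowering LDL uptake; positive z-scores mean more uptake, negative mean less.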"}
{"gene":"RADX (RPA1 related single stranded DNA binding protein, X-linked)","robust z-score, replicate 1":1.94,"robust z-score, replicate 2":-0.0926,"robust z-score, replicate 3":0.498,"Outcome":"inactive"}
{"gene":"DHRS7C (dehydrogenase/reductase 7C)","robust z-score, replicate 1":-0.44,"robust z-score, replicate 2":-0.66,"robust z-score, replicate 3":-0.374,"Outcome":"inactive"}
{"gene":"NR1D1 (nuclear receptor subfamily 1 group D member 1)","robust z-score, replicate 1":-0.942,"robust z-score, replicate 2":-0.346,"robust z-score, replicate 3":-0.127,"Outcome":"inactive"}
{"gene":"PITX3 (paired like homeodomain 3)","robust z-score, replicate 1":-0.946,"robust z-score, replicate 2":-0.968,"robust z-score, replicate 3":-0.36,"Outcome":"inactive"}
{"gene":"UBASH3A (ubiquitin associated and SH3 domain containing A)","robust z-score, replicate 1":1.22,"robust z-score, replicate 2":0.922,"robust z-score, replicate 3":0.835,"Outcome":"inactive"}
{"gene":"ZNF417 (zinc finger protein 417)","robust z-score, replicate 1":-1.05,"robust z-score, replicate 2":-0.77,"robust z-score, replicate 3":-0.716,"Outcome":"inactive"}
{"gene":"KNSTRN (kinetochore localized astrin (SPAG5) binding protein)","robust z-score, replicate 1":1.17,"robust z-score, replicate 2":0.347,"robust z-score, replicate 3":1.02,"Outcome":"inactive"}
{"gene":"MYBL1 (MYB proto-oncogene like 1)","robust z-score, replicate 1":1.83,"robust z-score, replicate 2":1.02,"robust z-score, replicate 3":0.989,"Outcome":"inactive"}
{"gene":"DZIP1L (DAZ interacting zinc finger protein 1 like)","robust z-score, replicate 1":0.184,"robust z-score, replicate 2":-0.0855,"robust z-score, replicate 3":0.178,"Outcome":"inactive"}
{"gene":"MUC7 (mucin 7, secreted)","robust z-score, replicate 1":1.25,"robust z-score, replicate 2":1.49,"robust z-score, replicate 3":1.71,"Outcome":"inactive"}
{"gene":"ACBD6 (acyl-CoA binding domain containing 6)","robust z-score, replicate 1":0.323,"robust z-score, replicate 2":-0.486,"robust z-score, replicate 3":-0.0821,"Outcome":"inactive"}
{"gene":"PNPLA3","robust z-score, replicate 1":-0.692,"robust z-score, replicate 2":-0.6,"robust z-score, replicate 3":-0.678,"Outcome":"inactive"}
{"gene":"PGRMC1 (progesterone receptor membrane component 1)","robust z-score, replicate 1":1.78,"robust z-score, replicate 2":1.45,"robust z-score, replicate 3":1.59,"Outcome":"inactive"}
{"gene":"POLE3 (DNA polymerase epsilon 3, accessory subunit)","robust z-score, replicate 1":-0.278,"robust z-score, replicate 2":-0.563,"robust z-score, replicate 3":-0.701,"Outcome":"inactive"}
{"gene":"STRAP (serine/threonine kinase receptor associated protein)","robust z-score, replicate 1":3.34,"robust z-score, replicate 2":2.19,"robust z-score, replicate 3":1.64,"Outcome":"active"}
{"gene":"ALDH3A2 (aldehyde dehydrogenase 3 family member A2)","robust z-score, replicate 1":-1.35,"robust z-score, replicate 2":-0.799,"robust z-score, replicate 3":-1.87,"Outcome":"inactive"}
